Data published in the supplement of paper PMC6411743.
± gives the standard deviation of the averaged measurements. Only a part is listed here, and it is no random draw.

How the values were obtained:
Assay in all cases: NP40-soluble protein abundance relative to vehicle (solubility fold change) (ratio); higher = more soluble protein in presence of ATP
[1] = target: T1, ACAD9 (UniProt Q9H845)
T1 sequence (whole entry): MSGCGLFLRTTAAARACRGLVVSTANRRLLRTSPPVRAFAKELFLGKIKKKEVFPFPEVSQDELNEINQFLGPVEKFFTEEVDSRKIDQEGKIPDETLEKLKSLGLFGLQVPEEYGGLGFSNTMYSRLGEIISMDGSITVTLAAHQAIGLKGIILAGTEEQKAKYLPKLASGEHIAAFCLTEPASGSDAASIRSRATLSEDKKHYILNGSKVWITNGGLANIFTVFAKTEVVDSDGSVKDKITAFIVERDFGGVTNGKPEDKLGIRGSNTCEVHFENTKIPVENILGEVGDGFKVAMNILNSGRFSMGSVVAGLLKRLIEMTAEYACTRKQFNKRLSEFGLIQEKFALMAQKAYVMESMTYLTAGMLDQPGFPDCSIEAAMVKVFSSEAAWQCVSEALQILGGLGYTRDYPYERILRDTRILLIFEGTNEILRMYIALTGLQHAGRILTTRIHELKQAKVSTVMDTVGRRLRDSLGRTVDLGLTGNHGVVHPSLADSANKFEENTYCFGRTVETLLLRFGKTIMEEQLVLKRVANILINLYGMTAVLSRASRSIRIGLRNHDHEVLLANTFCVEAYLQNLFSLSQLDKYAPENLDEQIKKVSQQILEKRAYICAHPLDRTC
Summary of the method: (§1)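 Jurkat crude lysate (Dounce-homogenised) was treated with eight concentrations from 0.1 to 10 mM for 10 min at room temperature, then 3 min at 37 °C. It was solubilised with 0.8% NP40 and benzonase (60 min, 4 °C) and ultracentrifuged, and the supernatant was TMT-labelled for LC-MS/MS. Intensities were vsn-normalised, and the value is the fold change against the NP40-processed vehicle per replicate, from three independent experiments.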

[2] = target: T2, CSTF2T (UniProt Q9H0L4)
T2 sequence (whole entry): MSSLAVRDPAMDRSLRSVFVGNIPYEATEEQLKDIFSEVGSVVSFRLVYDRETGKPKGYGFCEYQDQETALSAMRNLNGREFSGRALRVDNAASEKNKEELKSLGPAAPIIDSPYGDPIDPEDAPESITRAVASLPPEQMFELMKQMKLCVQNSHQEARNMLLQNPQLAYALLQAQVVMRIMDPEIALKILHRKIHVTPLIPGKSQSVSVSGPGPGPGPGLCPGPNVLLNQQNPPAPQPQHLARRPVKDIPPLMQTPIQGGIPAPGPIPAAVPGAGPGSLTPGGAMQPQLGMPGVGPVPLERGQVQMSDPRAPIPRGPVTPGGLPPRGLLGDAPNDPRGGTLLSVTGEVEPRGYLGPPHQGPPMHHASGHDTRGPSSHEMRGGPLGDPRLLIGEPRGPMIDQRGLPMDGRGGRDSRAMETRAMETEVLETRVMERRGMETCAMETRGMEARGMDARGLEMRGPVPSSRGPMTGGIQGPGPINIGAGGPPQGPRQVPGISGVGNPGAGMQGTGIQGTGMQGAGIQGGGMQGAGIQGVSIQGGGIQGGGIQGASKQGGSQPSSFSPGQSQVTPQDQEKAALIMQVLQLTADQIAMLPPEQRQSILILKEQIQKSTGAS
Summary of the method: as §1

[3] = target: T3, DNTTIP1 (UniProt Q9H147)
T3 sequence (whole entry): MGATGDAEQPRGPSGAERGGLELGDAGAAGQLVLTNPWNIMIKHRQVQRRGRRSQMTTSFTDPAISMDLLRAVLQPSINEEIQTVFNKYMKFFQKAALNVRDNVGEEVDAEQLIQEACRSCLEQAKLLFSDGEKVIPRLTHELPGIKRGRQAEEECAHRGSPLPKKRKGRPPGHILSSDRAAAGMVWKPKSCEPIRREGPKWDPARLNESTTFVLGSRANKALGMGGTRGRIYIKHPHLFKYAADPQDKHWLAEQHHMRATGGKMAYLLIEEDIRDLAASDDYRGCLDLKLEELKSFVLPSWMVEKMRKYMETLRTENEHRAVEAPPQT
Summary of the method: as §1

[4] = target: T4, PLEKHF2 (UniProt Q9H8W4)
T4 sequence (whole entry): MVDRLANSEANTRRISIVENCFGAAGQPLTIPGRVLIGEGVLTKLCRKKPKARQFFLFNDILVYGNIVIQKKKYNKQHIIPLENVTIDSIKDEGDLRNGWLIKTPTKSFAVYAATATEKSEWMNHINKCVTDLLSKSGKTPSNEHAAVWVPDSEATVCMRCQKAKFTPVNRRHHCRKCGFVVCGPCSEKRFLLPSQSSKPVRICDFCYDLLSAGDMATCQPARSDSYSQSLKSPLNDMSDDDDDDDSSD
Summary of the method: as §1

[5] = target: T5, PREB (UniProt Q9HCU5)
T5 sequence (whole entry): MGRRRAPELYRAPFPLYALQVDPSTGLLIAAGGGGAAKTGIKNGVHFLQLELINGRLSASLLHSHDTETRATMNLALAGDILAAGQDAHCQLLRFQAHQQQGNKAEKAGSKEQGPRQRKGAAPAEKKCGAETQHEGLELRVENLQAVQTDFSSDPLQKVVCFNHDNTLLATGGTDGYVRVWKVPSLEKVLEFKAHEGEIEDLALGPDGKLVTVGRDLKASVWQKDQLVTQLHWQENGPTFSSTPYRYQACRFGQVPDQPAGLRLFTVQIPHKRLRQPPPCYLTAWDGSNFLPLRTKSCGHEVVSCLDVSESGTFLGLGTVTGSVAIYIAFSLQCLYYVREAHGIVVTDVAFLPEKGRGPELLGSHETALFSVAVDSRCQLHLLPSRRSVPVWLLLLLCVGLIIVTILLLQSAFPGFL
Summary of the method: as §1

Nc1ncnc2c1ncn2[C@@H]1O[C@H](COP(=O)(O)OP(=O)(O)OP(=O)(O)O)[C@@H](O)[C@H]1O [adenosine triphosphate]
NP40-soluble protein abundance ([1]; concentration: 1mM): 1.01 ± 0.078
NP40-soluble protein abundance ([1]; concentration: 2mM): 0.988 ± 0.053
NP40-soluble protein abundance ([1]; concentration: 4mM): 0.969 ± 0.031
NP40-soluble protein abundance ([1]; concentration: 6mM): 0.95 ± 0.081
NP40-soluble protein abundance ([1]; concentration: 8mM): 0.987 ± 0.026
NP40-soluble protein abundance ([1]; concentration: 10mM): 0.968 ± 0.044
NP40-soluble protein abundance ([2]; concentration: 1mM): 1.02 ± 0.06
NP40-soluble protein abundance ([2]; concentration: 2mM): 1.02 ± 0.053
NP40-soluble protein abundance ([2]; concentration: 4mM): 1.03 ± 0.024
NP40-soluble protein abundance ([2]; concentration: 6mM): 1.09 ± 0.025
NP40-soluble protein abundance ([2]; concentration: 8mM): 1.05 ± 0.014
NP40-soluble protein abundance ([2]; concentration: 10mM): 1.06 ± 0.017
NP40-soluble protein abundance ([3]; concentration: 1mM): 1.08 ± 0.024
NP40-soluble protein abundance ([3]; concentration: 2mM): 1.05 ± 0.028
NP40-soluble protein abundance ([3]; concentration: 4mM): 1.06 ± 0.015
NP40-soluble protein abundance ([3]; concentration: 6mM): 1.05 ± 0.029
NP40-soluble protein abundance ([3]; concentration: 8mM): 1.06 ± 0.051
NP40-soluble protein abundance ([3]; concentration: 10mM): 1.07 ± 0.018
NP40-soluble protein abundance ([4]; concentration: 1mM): 0.94 ± 0.031
NP40-soluble protein abundance ([4]; concentration: 2mM): 0.958 ± 0.027
NP40-soluble protein abundance ([4]; concentration: 4mM): 0.9318 ± 0.0048
NP40-soluble protein abundance ([4]; concentration: 6mM): 0.941 ± 0.024
NP40-soluble protein abundance ([4]; concentration: 8mM): 0.909 ± 0.023
NP40-soluble protein abundance ([4]; concentration: 10mM): 0.9057 ± 0.0078
NP40-soluble protein abundance ([5]; concentration: 1mM): 1.03 ± 0.053
NP40-soluble protein abundance ([5]; concentration: 2mM): 1.02 ± 0.042
NP40-soluble protein abundance ([5]; concentration: 4mM): 1.02 ± 0.062
